Our source for the binding values is publication PMC8425412.

No constants are given. Whether binding was seen depends on the method and setting. Binding seen in cells or lysates may run through a third protein. Some binding calls cover weakened binding; strength is not graded here. Sequences can lack the tags named with a protein.

Holding throughout (assay): co-IP
One assay deals with T1, GFP-PDK1 PH domain (UniProt O15530).
T1 sequence: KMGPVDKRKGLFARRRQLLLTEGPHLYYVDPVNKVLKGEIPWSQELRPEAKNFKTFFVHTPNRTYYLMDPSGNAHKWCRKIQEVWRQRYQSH

For assay [1], the target named is T2, GFP-PDK1 (3-phosphoinositide-dependent protein kinase-1) (UniProt O15530).
T2 sequence: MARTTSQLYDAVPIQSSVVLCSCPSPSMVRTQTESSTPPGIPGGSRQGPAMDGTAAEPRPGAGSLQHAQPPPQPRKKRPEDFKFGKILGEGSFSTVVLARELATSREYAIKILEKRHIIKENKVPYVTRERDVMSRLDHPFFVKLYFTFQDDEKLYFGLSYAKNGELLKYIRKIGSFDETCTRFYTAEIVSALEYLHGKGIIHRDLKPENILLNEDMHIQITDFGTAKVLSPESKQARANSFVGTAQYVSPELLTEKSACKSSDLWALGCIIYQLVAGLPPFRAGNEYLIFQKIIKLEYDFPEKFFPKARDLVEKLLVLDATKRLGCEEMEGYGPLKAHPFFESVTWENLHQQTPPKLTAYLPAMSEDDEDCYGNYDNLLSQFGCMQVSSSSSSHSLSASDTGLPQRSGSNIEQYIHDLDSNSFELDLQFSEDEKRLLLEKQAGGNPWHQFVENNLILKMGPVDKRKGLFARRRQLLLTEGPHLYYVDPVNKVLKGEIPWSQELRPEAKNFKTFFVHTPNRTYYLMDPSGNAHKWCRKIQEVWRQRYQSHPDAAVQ

Assay [2] concerns the target FLAG-SARS-CoV-2 M (membrane glycoprotein M) (SARS-CoV-2) (UniProt P0DTC5).

On to “FLAG-SARS-CoV-2 M (membrane glycoprotein M) (from UniProt P0DTC5 1-222)”, for which the binding result (with GFP-PDK1 PH domain; in assay [1]) was “binds” throughout. With “Myc-SARS-CoV-2 M (from UniProt P0DTC5 1-222)”, the binding entry in assay [1] was “binds”.

B1: GFP-PDK1 (3-phosphoinositide-dependent protein kinase-1) (enzyme, UniProt O15530 1-556)
chain: T2 sequence
As for B1, the binding result in assay [2] is given as “binds”.
